# From US7015214B2, “Cyanamide, alkoxyamino, and urea derivatives of 1,3-benzodiazepine as HIV reverse transcriptase inhibitors” (Bristol-Myers Squibb Pharma Company, priority 2001, dated 2006)
# Tested on: HIV-1 (RF)
# Test: HIV RNA assay: microplate based compound evaluation in HIV-1 infected MT-2 cells
# Type: cell-based
# Details: Human immunodeficiency virus 1, MT2, 72 h; HIV-1 (RF) infected MT-2 cells, 3 days; value used to standardize the virus inoculum; read-out: IC90 (concentration of compound required to reduce the HIV RNA level by 90%)
# Procedure: Plasmid PDAB 72 containing both gag and pol sequences of BH10 (bp 113–1816) cloned into PTZ 19R was prepared according to Erickson-Viitanen et al. AIDS Research and Human Retroviruses 1989, 5, 577. The plasmid was linearized with Bam HI prior to the generation of in vitro RNA transcripts using the Riboprobe Gemini system II kit (Promega) with T7 RNA polymerase. Synthesized RNA was purified by treatment with RNase free DNAse (Promega), phenol-chloroform extraction, and ethanol precipitation. RNA transcripts were dissolved in water, and stored at −70° C. The concentration of RNA was determined from the A260.
# Biotinylated capture probes were purified by HPLC after synthesis on an Applied Biosystems (Foster City, Calif.) DNA synthesizer by addition of biotin to the 5′ terminal end of the oligonucleotide, using the biotin-phosphoramidite reagent of Cocuzza, Tet. Lett. 1989, 30, 6287. […]
# MT-2 and MT-4 cells were maintained in RPMI 1640 supplemented with 5% fetal calf serum (FCS) for MT-2 cells or 10% FCS for MT-4 cells, 2 mM L-glutamine and 50 μg/mL gentamycin, all from Gibco. […] Infectious titers of HIV-1(RF) stocks were 1–3×10^7 PFU (plaque forming units)/mL as measured by plaque assay on MT-2 cells (see below). […]
compound,measurement,value
"Nc1ccn([C@H]2CC[C@@H](CO)O2)c(=O)n1 [ddC, 2′,3′-dideoxycytidine]",IC90,0.2 mg/L
